No constants are given. Whether binding was seen depends on the method and setting. In cells and extracts the contact can be indirect. Some results given as binding are weak or reduced against the parent protein; the word gives no strength.
Key:
[1] = target: SERCA2b (sarco/endoplasmic reticulum ATPase 2, isoform b) (human (endogenous in Mel202)) (UniProt P16615); experiment: co-IP; IP of SERCA2 (monoclonal ab2861, Dynabeads Protein A) from 1.5 mg lysate of Mel202 cells expressing HaloTag or Halo-PERP; 30 min at room temperature; four washes in PBS; blot with a HaloTag antibody
[2] = target: Halo-PERP (PERP fused to an N-terminal HaloTag) (UniProt Q96FX8); experiment: pull-down; HaloTag Mammalian Pull-Down System from Mel202 lysate; elution by ProTEV, then SDS; immunoblot with the SERCA2b isoform-specific antibody; two independent experiments

Sequences of proteins named here, by UniProt entry; tags and fusion partners are left off. A change or cut given only in a name is not applied to a line headed by its entry.
UniProt P16615: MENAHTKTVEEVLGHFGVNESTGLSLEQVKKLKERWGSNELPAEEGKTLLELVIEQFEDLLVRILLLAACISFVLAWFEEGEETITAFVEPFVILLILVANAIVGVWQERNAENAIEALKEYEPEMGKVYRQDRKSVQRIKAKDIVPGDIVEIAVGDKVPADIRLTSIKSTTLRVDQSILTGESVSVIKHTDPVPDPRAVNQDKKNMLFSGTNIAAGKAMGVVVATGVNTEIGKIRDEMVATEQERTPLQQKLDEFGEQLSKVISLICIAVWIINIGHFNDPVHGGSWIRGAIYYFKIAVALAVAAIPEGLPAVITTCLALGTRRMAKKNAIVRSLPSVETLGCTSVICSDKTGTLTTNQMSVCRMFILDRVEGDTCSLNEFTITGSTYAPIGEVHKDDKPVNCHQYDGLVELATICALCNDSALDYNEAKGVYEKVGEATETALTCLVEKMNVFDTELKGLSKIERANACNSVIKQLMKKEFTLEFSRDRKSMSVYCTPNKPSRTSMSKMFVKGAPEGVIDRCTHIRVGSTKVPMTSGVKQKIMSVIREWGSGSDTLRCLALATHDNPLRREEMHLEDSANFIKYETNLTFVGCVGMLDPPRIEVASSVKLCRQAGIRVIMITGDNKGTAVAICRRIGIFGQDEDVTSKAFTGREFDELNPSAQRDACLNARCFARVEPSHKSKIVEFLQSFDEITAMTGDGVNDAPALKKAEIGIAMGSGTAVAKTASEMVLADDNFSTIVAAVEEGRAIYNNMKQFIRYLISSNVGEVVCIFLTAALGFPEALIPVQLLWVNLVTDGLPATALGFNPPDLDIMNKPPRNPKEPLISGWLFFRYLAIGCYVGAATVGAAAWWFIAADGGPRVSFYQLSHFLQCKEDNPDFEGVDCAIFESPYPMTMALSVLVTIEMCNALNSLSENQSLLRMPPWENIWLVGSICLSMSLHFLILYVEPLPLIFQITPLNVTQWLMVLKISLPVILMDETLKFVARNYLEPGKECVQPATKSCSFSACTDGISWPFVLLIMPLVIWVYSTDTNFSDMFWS

| binding [1] | binding [2] | Substance |
| --- | --- | --- |
| binds |  | Halo-PERP (PERP fused to an N-terminal HaloTag) (from UniProt Q96FX8 1-193) |
|  | binds | SERCA2b (sarco/endoplasmic reticulum ATPase 2, isoform b) (from UniProt P16615-1 1-1042) |

Source: article PMC6718399
